# Results from one PubChem assay

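HEK293 cells carrying a CMV promoter luciferase reporter, with luminescence read 24 h after treatment to check for nonspecific loss of reporter signal. Percent change in reporter signal versus neutral control wells at the top tested concentration; more negative values mean stronger inhibition. Inconclusive means the independent runs disagreed, the fit was flat at 30 to 70% inhibition, or the curve fit was poor.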

Values are in %. Every entry below has the call inconclusive. Only part of the assay is shown, chiefly results filed as inconclusive.

| # | compound | condition | activity change (%) |
|---|---|---|---|
| 1 | `COc1ccc(/C=c2/sc3n(c2=O)C(c2ccccc2OC)C2=C(N=3)c3ccccc3CC2)cc1O` (stereo not shown) | at 35 µM (top of the series) | -23.9 |
| 2 | `Cn1nnnc1Sc1ncnc2scc(-c3cccc4c3sc3ccccc34)c12` | at 35 µM (top of the series) | -17.62 |
| 3 | `C#CCN(C[C@@H]1[C@@H](OC(=O)NC2CCCC2)[C@@H](OC(=O)NC2CCCC2)Cn2c(=O)ccc(=O)n21)S(=O)(=O)c1ccc(C)cc1` | at 35 µM (top of the series) | -14.88 |
| 4 | `O=C(C#Cc1ccccc1)c1ccco1` | at 35 µM (top of the series) | -45.68 |
| 5 | `CC(=O)Nc1ccc(Sc2ccc([N+](=O)[O-])o2)cc1` | at 35 µM (top of the series) | -15.28 |
| 6 | `CS(=O)(=O)c1ncc(Cl)c(C(=O)Nc2ccc3ccccc3c2)n1` | at 35 µM (top of the series) | -36.9 |
| 7 | `Nc1ncnc2c(C3OC(CO)C(O)C3O)c[nH]c12` (stereo not shown) | at 35 µM (top of the series) | -80.75 |
| 8 | `Nc1ccc(-c2nc3ccc(C(=O)O)cc3s2)cc1` | at 35 µM (top of the series) | -81.58 |
| 9 | `Cc1cccc(C2(c3cccc(C)c3)CC2C(=O)Nc2ccc([N+](=O)[O-])cc2O)c1` (stereo not shown) | at 35 µM (top of the series) | -96.76 |
| 10 | `C[C@H]1CN([C@@H](C)CO)C(=O)c2c(c3ccccc3n2C)-c2ccccc2CO[C@H]1CN(C)S(=O)(=O)c1ccc([N+](=O)[O-])cc1` | at 35 µM (top of the series) | -62.59 |
| 11 | `C[C@H]1O[C@@H](O[C@H]2[C@@H](O)C[C@H](O[C@H]3[C@@H](O)C[C@H](O[C@H]4CC[C@@]5(C)[C@H](CC[C@@H]6[C@@H]5C[C@@H](O)[C@]5(C)[C@@H](C7=CC(=O)OC7)CC[C@]65O)C4)O[C@@H]3C)O[C@@H]2C)C[C@H](O)[C@@H]1O` | at 35 µM (top of the series) | -99.09 |
| 12 | `COc1ccc(C#Cc2ccc([C@H]3[C@@H](CO)N4CCCCN(C(=O)Nc5cccc(F)c5)C[C@H]34)cc2)cc1` | at 35 µM (top of the series) | -85.39 |
| 13 | `CC(=NNC(=S)N1CCN(C2CCCCCC2)CC1)c1ccccn1` | at 35 µM (top of the series) | -72.04 |
| 14 | `C[C@@H]1CCCCO[C@H](CN(C)S(=O)(=O)c2ccc(Cl)cc2)[C@H](C)CN([C@@H](C)CO)C(=O)c2cc(N(C)C)ccc2O1` | at 35 µM (top of the series) | -17.41 |
| 15 | `C[C@@H]1CCCCO[C@H](CN(C)C(=O)Nc2ccc(C(F)(F)F)cc2)[C@@H](C)CN([C@@H](C)CO)C(=O)c2cc(NS(=O)(=O)c3ccc(Cl)cc3)ccc2O1` | at 35 µM (top of the series) | -31.7 |
| 16 | `N#CC1(NC(=O)Cn2ncc(Cl)c(Cl)c2=O)CCCCC1` | at 35 µM (top of the series) | -14.22 |
| 17 | `N#C[C@@H]1[C@H](c2ccc(C#CC3CCCC3)cc2)[C@H](CO)N1C(=O)Nc1ccc(F)cc1` | at 35 µM (top of the series) | -27.18 |
| 18 | `O=C(c1ccc(Br)cc1)c1cc([N+](=O)[O-])ccc1N1CCCCC1` | at 35 µM (top of the series) | -42.81 |
| 19 | `Cn1nnnc1Sc1ncnc2scc(-c3cc4ccccc4o3)c12` | at 35 µM (top of the series) | -22.35 |
| 20 | `Cc1cc(-c2n[nH]c(=S)n2/N=C/C(Br)=C/c2ccccc2)n[nH]1` | at 35 µM (top of the series) | 123.8 |
| 21 | `COc1cccc(NC(=O)Nc2nc(-c3ccc(OC)c(OC)c3)cs2)c1` | at 35 µM (top of the series) | -96.06 |
| 22 | `Oc1ccc(N=Nc2ccccc2C(F)(F)F)c2cccnc12` | at 35 µM (top of the series) | 33.81 |
| 23 | `C[C@@H]1CN([C@@H](C)CO)C(=O)c2c(c3ccccc3n2C)-c2ccccc2CO[C@@H]1CN(C)S(=O)(=O)c1ccc(C(F)(F)F)cc1` | at 35 µM (top of the series) | -25.71 |
| 24 | `COc1cc([C@@H]2c3cc4c(cc3[C@H](O)[C@H]3COC(=O)[C@H]23)OCO4)cc(OC)c1OC` | at 35 µM (top of the series) | -49.81 |
| 25 | `CCCC#Cc1ccc([C@H]2[C@@H](C#N)N(C(=O)C3CCCCC3)[C@H]2CO)cc1` | at 35 µM (top of the series) | -32.79 |
| 26 | `COc1ccccc1N(C(=O)CCl)c1cn(C(C)=O)c2ccccc12` | at 35 µM (top of the series) | -42.62 |
| 27 | `COc1ccccc1C#Cc1ccc([C@H]2[C@H](C#N)N(C(=O)C3CC3)[C@H]2CO)cc1` | at 35 µM (top of the series) | -46.17 |
| 28 | `COc1ccc(CN(C)C[C@@H]2OCCCC[C@H](C)Oc3ccc(NC(=O)Nc4ccc(C(F)(F)F)cc4)cc3C(=O)N([C@@H](C)CO)C[C@H]2C)cc1` | at 35 µM (top of the series) | -35.45 |
| 29 | `CC(=O)NC(c1ccc(Cl)cc1)c1ccc2cccnc2c1O` (stereo not shown) | at 16 µM (top of the series) | -50.92 |
| 30 | `CCCCCC(CC(=O)NO)C(=O)NC(C(=O)N1CCCC1CO)C(C)C` (stereo not shown) | at 35 µM (top of the series) | -24.72 |
| 31 | `NC(=NCCCCCCN=C(N)/N=C(\N)Nc1ccc(Cl)cc1)/N=C(\N)Nc1ccc(Cl)cc1` | at 35 µM (top of the series) | -39.79 |
| 32 | `COc1ccc(S(=O)(=O)Nc2ccc3c(c2)C(=O)N([C@@H](C)CO)C[C@@H](C)[C@H](CN(C)Cc2ccc(C(F)(F)F)cc2)OCCCC[C@H](C)O3)cc1` | at 35 µM (top of the series) | -17.99 |
| 33 | `CC1OC(CC(=O)O)CC2=C1C(=O)c1c(O)cccc1C2=O` (stereo not shown) | at 35 µM (top of the series) | -94.06 |
| 34 | `COc1ccc2c(c1)OC/C(=C/c1cccs1)C2=O` | at 16 µM (top of the series) | 101.4 |
| 35 | `Cc1ccc(S(=O)(=O)Nc2ccc3c(c2)C(=O)N([C@H](C)CO)C[C@@H](C)[C@@H](CN(C)Cc2ccc(C(F)(F)F)cc2)OCCCC[C@H](C)O3)cc1` | at 35 µM (top of the series) | -26.12 |
| 36 | `Cc1cc(C2=NNC(=NC3CC3)SC2)c(C)n1-c1ccccc1F` | at 35 µM (top of the series) | 77.17 |
| 37 | `COc1cc(/C=N/O)ccc1OCc1ccc(C(=O)O)cc1` | at 35 µM (top of the series) | -76.91 |
| 38 | `C[C@H](CO)N1C[C@H](C)[C@@H](CN(C)Cc2ccc(C(F)(F)F)cc2)OCCCC[C@H](C)Oc2ccc(NS(=O)(=O)c3ccc(Cl)cc3)cc2C1=O` | at 35 µM (top of the series) | -50.53 |
| 39 | `CC(=O)OC1CCC2(C)C(CCC3C4CC=C(C(C)=O)C4(C)OC(=O)CC32)C1` (stereo not shown) | at 35 µM (top of the series) | -39.13 |
| 40 | `Nc1nc(Sc2ccc([N+](=O)[O-])c3nonc23)c2[nH]cnc2n1` | at 35 µM (top of the series) | -28.05 |
| 41 | `O=[N+]([O-])c1ccc(O)c(-c2cc(C(F)(F)F)nc(-c3ccccc3)n2)c1` | at 35 µM (top of the series) | -65.32 |
| 42 | `O=c1[nH]c2ccccc2n1C1CCN(C(CCc2ccccc2)c2nnnn2-c2ccc3c(c2)OCCO3)CC1` (stereo not shown) | at 35 µM (top of the series) | -54.77 |
| 43 | `CCCN(C)C[C@H]1OCCCC[C@@H](C)Oc2ccc(NC(=O)Nc3ccc(C(F)(F)F)cc3)cc2C(=O)N([C@H](C)CO)C[C@H]1C` | at 35 µM (top of the series) | -9.81 |
| 44 | `CCC[C@H](CN[C@@H](CNC)[C@H](C)CC)NCCc1cc(C(F)(F)F)cc(C(F)(F)F)c1` | at 35 µM (top of the series) | -47.7 |

Repeated from the top, 5 entries:

compound,condition,activity change (%)
COc1ccc(/C=c2/sc3n(c2=O)C(c2ccccc2OC)C2=C(N=3)c3ccccc3CC2)cc1O (stereo not shown),at 35 µM (top of the series),-23.9
Cn1nnnc1Sc1ncnc2scc(-c3cccc4c3sc3ccccc34)c12,at 35 µM (top of the series),-17.62
C#CCN(C[C@@H]1[C@@H](OC(=O)NC2CCCC2)[C@@H](OC(=O)NC2CCCC2)Cn2c(=O)ccc(=O)n21)S(=O)(=O)c1ccc(C)cc1,at 35 µM (top of the series),-14.88
O=C(C#Cc1ccccc1)c1ccco1,at 35 µM (top of the series),-45.68
CC(=O)Nc1ccc(Sc2ccc([N+](=O)[O-])o2)cc1,at 35 µM (top of the series),-15.28

The results are deposited in PubChem (AID743020; Broad Institute, 2013).